Laboratory results taken from paper PMC4231765.
No constants are given. Whether binding was seen depends on the method and setting. Some entries that bind do so weakly or less than the wild type. Tags and fused reporters may be left off the sequences shown.

Molecular target: T1, HYL1, full-length, recombinant (MBP-HYL1 and GST-HYL1) (Arabidopsis thaliana), O04492
T1 chain: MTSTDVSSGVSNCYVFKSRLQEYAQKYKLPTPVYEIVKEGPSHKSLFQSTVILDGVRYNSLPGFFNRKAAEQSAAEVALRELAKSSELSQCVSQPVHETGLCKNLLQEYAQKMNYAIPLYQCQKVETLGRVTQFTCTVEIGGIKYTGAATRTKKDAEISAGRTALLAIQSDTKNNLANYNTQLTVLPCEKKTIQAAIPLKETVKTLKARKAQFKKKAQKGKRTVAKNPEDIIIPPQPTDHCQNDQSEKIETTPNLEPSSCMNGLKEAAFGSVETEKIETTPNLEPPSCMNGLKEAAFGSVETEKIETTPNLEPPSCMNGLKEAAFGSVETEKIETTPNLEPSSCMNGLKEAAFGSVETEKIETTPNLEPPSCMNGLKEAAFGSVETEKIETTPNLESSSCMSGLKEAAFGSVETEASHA
Experiment: pull-down; MBP-tagged protein on amylose resin, incubated with GST-tagged protein overnight at 4°C in 25 mM Tris pH 7.4, 1 mM EDTA, 0.01% NP-40, 2 M NaCl; 10 washes; immunoblot with GST antibody; both purified
Settings: remark: other sources report otherwise

B1: HYL1, full-length, recombinant (MBP-HYL1 and GST-HYL1), O04492 1-419 (protein)
chain: T1 chain
binding: binds
